Measured values taken from WO2005107784A1 (dated 2005).
Results are given in words; binding and its absence hold for the method and conditions named. Some binding calls cover weakened binding; strength is not graded here. Where a sequence is shown, tags or fusion partners need not be part of it.

T1: MG10-GST fusion protein (human Mpl Gln213 to Ala231) (human)
T1 sequence: QPTMPWQDGPKQTSPSREA

B1: hVB22B p-z sc(Fv)2 (scFv)
scFv: QVQLVQSGPEVKKPGASVKVSCKASGYTFTNSWMNWVRQRPGKGLEWMGRIYPGDGETIYNGKFRVRVTITADESTSTAYMELSSLRSEDTAVYYCARGYDDYSFAYWGQGTTVTVSSGGGGSGGGGSGGGGSDIVMTQSALSLPVTPGEPASISCRSSKSLLHSNGNTYLYWFQQKPGQSPQLLIYRMSNLASGVPDRFSGSGSGTAFTLKISRVEAEDVGVYYCMQHIEYPFTFGQGTKLEIKGGGGSGGGGSGGGGSQVQLVQSGPEVKKPGASVKVSCKASGYTFTNSWMNWVRQRPGKGLEWMGRIYPGDGETIYNGKFRVRVTITADESTSTAYMELSSLRSEDTAVYYCARGYDDYSFAYWGQGTTVTVSSGGGGSGGGGSGGGGSDIVMTQSALSLPVTPGEPASISCRSSKSLLHSNGNTYLYWFQQKPGQSPQLLIYRMSNLASGVPDRFSGSGSGTAFTLKISRVEAEDVGVYYCMQHIEYPFTFGQGTKLEIK
B2: hVB22B g-e sc(Fv)2 (scFv)
scFv: QVQLVQSGPEVKKPGASVKVSCKASGYTFTNSWMNWVRQRPGKGLEWVGRIYPGDGETIYNGKFRVRVTITADESTSTAYMELSSLRSEDTAVYYCARGYDDYSFAYWGQGTTVTVSSGGGGSGGGGSGGGGSDIVMTQSALSLPVTPGEPASISCRSSKSLLHSNGNTYLYWYLQKPGQSPQLLIYRMSNLASGVPDRFSGSGSGTAFTLKISRVEAEDVGVYYCMQHIEYPFTFGQGTKLEIKGGGGSGGGGSGGGGSQVQLVQSGPEVKKPGASVKVSCKASGYTFTNSWMNWVRQRPGKGLEWVGRIYPGDGETIYNGKFRVRVTITADESTSTAYMELSSLRSEDTAVYYCARGYDDYSFAYWGQGTTVTVSSGGGGSGGGGSGGGGSDIVMTQSALSLPVTPGEPASISCRSSKSLLHSNGNTYLYWYLQKPGQSPQLLIYRMSNLASGVPDRFSGSGSGTAFTLKISRVEAEDVGVYYCMQHIEYPFTFGQGTKLEIK
B3: hVB22B e sc(Fv)2 (scFv)
scFv: QVQLVQSGPEVKKPGASVKVSCKASGYTFTNSWMNWIRQRPGKGLEWIGRIYPGDGETIYNGKFRVRVTITADESTSTAYMELSSLRSEDTAVYYCARGYDDYSFAYWGQGTLVTVSSGGGGSGGGGSGGGGSDIVMTQSALSLPVTPGEPASISCRSSKSLLHSNGNTYLYWYLQKPGQSPQLLIYRMSNLASGVPDRFSGSGSGTAFTLKISRVEAEDVGVYYCMQHIEYPFTFGQGTKLEIKGGGGSGGGGSGGGGSQVQLVQSGPEVKKPGASVKVSCKASGYTFTNSWMNWIRQRPGKGLEWIGRIYPGDGETIYNGKFRVRVTITADESTSTAYMELSSLRSEDTAVYYCARGYDDYSFAYWGQGTLVTVSSGGGGSGGGGSGGGGSDIVMTQSALSLPVTPGEPASISCRSSKSLLHSNGNTYLYWYLQKPGQSPQLLIYRMSNLASGVPDRFSGSGSGTAFTLKISRVEAEDVGVYYCMQHIEYPFTFGQGTKLEIK
B4: hVB22B u2-wz4 sc(Fv)2 (scFv)
scFv: QVQLVQSGPEVKKPGASVKVSCKASGYTFTNSWMNWVRQRPGKGLEWIGRIYPGDGETIYNGKFRVRVTITADESTSTAYMQLSSLRSEDTAVYYCARGYDDYSFAYWGQGTTVTVSSGGGGSGGGGSGGGGSDIVMTQSPLSLPVTPGEPASISCRSSKSLLHSNGNTYLYWFLQKPGQSPQLLIYRMSNLASGVPDRFSGSGSGTDFTLKISRVEAEDVGVYYCMQHIEYPFTFGQGTKLEIKGGGGSGGGGSGGGGSQVQLVQSGPEVKKPGASVKVSCKASGYTFTNSWMNWVRQRPGKGLEWIGRIYPGDGETIYNGKFRVRVTITADESTSTAYMQLSSLRSEDTAVYYCARGYDDYSFAYWGQGTTVTVSSGGGGSGGGGSGGGGSDIVMTQSPLSLPVTPGEPASISCRSSKSLLHSNGNTYLYWFLQKPGQSPQLLIYRMSNLASGVPDRFSGSGSGTDFTLKISRVEAEDVGVYYCMQHIEYPFTFGQGTKLEIK
B5: hVB22B q-wz5 sc(Fv)2 (scFv)
scFv: QVQLVQSGPEVKKPGASVKVSCKASGYTFTNSWMNWVRQRPGKGLEWIGRIYPGDGETIYNGKFRVRVTITADESTSTAYMELSSLRSEDTAVYYCARGYDDYSFAYWGQGTTVTVSSGGGGSGGGGSGGGGSDIVMTQSPLSLPVTPGEPASISCRSSKSLLHSNGNTYLYWFQQKPGQAPRLLIYRMSNLASGVPDRFSGSGSGTAFTLKISRVEAEDVGVYYCMQHIEYPFTFGQGTKLEIKGGGGSGGGGSGGGGSQVQLVQSGPEVKKPGASVKVSCKASGYTFTNSWMNWVRQRPGKGLEWIGRIYPGDGETIYNGKFRVRVTITADESTSTAYMELSSLRSEDTAVYYCARGYDDYSFAYWGQGTTVTVSSGGGGSGGGGSGGGGSDIVMTQSPLSLPVTPGEPASISCRSSKSLLHSNGNTYLYWFQQKPGQAPRLLIYRMSNLASGVPDRFSGSGSGTAFTLKISRVEAEDVGVYYCMQHIEYPFTFGQGTKLEIK
B6: anti-human Mpl antibody VB22B IgG (antibody, V domains shown)
VH: QVQLQQSGPELVKPGASVKISCKASGYAFTNSWMNWVKQRPGKGLEWIGRIYPGDGETIYNGKFRVKATLTADKSSSTAYMDISSLTSEDSAVYFCARGYDDYSFAYWGQGTLVTVSA
VL: DIVMTQAAPSIPVTPGESVSISCRSSKSLLHSNGNTYLYWFLQRPGQSPQLLIYRMSNLASGVPDRFSGSGSGTAFTLRISRVEAEDVGVYYCMQHIEYPFTFGSGTKLEIK

Each binder was assayed against T1, MG10-GST fusion protein (human Mpl Gln213 to Ala231) (human) (assay: affinity column with immobilised MG10-GST, eluted at pH 3.5).

Binder | binding
B1 | binds
B2 | binds
B3 | binds
B4 | binds
B5 | binds

The binders below were run against T1, MG10-GST fusion protein (human Mpl Gln213 to Ala231) (human) (assay: binding to GST fusion protein (western blotting)).

Binder | binding
B6 | binds
